Data taken from patent US20030037354A1, “Animal model with disrupted Fgf14 gene” (priority 2001, published 2003).
For at least one compound, name, drawing or mass did not settle the structure.

Key:
[1] = tested on: c-fos; conditions: in vivo; cited from earlier work
[2] = tested on: wildtype and Fgf14^N-βGal/N-βGal mice; assay: Locomotor activity response to stimulant drugs and dopamine receptor agonists; format: in vivo, mouse; conditions: 10 mg/kg intraperitoneal
Protocol: Locomotor activity. For the locomotor activity experiments, all mice were acclimated to the activity cages (28 cm long×17 cm wide×12.5 cm high) for one hour on two consecutive days. […] Mice were tested every other day and the order of drug treatment was counterbalanced across days within genotype groups. Locomotor activity was recorded every five minutes by two beams of red light placed at 10 and 19 cm along the length of the activity cage.
Statistical Analyses. The behavioral data were analyzed using analysis of variance (ANOVA) models typically containing one between-subjects variable (Genotype) and one within-subjects variable (e.g., Trials or Test Sessions). Subsequent one-way ANOVAs were used to evaluate main effects. Data from the experiments concerning drug effects on locomotor activity were analyzed by using a […] analysis of variance (ANOVA) with one between-subjects variable (Drug) being added to the above model. […] Alpha was set at p<0.05 for all analyses.

[3] = tested on: c-fos; assay: Induction of c-fos in the striatum in response to cocaine (immunohistochemistry); format: in vivo, mouse; conditions: 40 mg/kg intraperitoneal, after 2 hrs
[4] = tested on: Dopamine D1 receptor deficient mice; conditions: cited from earlier work
[5] = tested on: extracellular dopamine; conditions: 20 mg/kg; cited from earlier work

Q: With `COC(=O)[C@H]1[C@@H](OC(=O)c2ccccc2)C[C@@H]2CC[C@H]1N2C` [cocaine] as the compound, how does the “time of induction of c-fos expression after injection” value [1] read?
A: 30 to 40 min

Q: And the “time of peak c-fos expression after injection” value [1]?
A: 2 h

Q: And the locomotor hyperactivity response ([2]; 9-12 month old male Fgf14^N-βGal/N-βGal mice)?
A: failed to induce locomotor hyperactivity

Q: What about the locomotor hyperactivity response ([2]; wildtype littermates) of the same compound?
A: significant hyperactivity response

Q: What about the striatal c-fos induction ([3]; Fgf14^N-βGal/N-βGal mice) of the same compound?
A: dramatically reduced

Q: And the “c-fos expression in the striatum” value ([3]; wildtype mice)?
A: robustly induced c-fos expression

Q: And the locomotor response [4]?
A: completely lack a locomotor response

Q: And the “increase of synaptic dopamine over baseline” value [5]?
A: 120%
